In this assay the target is GST-ERK7 kinase domain (residues 2 to 358) (Toxoplasma gondii) (UniProt Q2QDG8). Briefly: pull-down; GST-ERK7 2–358 bound to glutathione Sepharose in 10 mM Hepes pH 7.0, 300 mM NaCl, 10 mM DTT; equimolar purified SUMO-AC9 fusions incubated 5 to 10 min, four washes; Western blot with anti-His6; both purified. Background: In western blotting, separated proteins are transferred to a membrane and probed.

These are yes or no findings as the source states them, for the method shown. Binding can be weak; no strength is given.

For “SUMO fusion of AC9_(401–452) (from UniProt S7V0W9) (domain or fragment)”, the binding result is “binds”.

The values are drawn from article PMC7275706.
